Assay results taken from patent US20130158264A1, “Polymorphs of OSI-906” (priority 2010, published 2013).
Where “and” joins values, the source holds several entries; their conditions need not be identical. Identical values can stand only once.

Assay: Quantitative determination of Forms A, C and D in OSI-906 by Raman spectroscopy
Details: for Calculated Form C / Calculated Form D: single repetitions; for Average Form C / Average Form D: triplicate
Experimental: A quantification method for Forms A, C and D in OSI-906 has been developed based on Raman spectroscopy and PLS (partial least squares) regression.
Lightly grind approximately 250 mg of sample in a mortar and pestle. Fill a 100 μL aluminum crucible which typically takes approximately 25 mg of ground sample depending on the bulk density of the material (no less than 12 mg should be used for the preparation). Use a spatula to compress the sample and provide a smooth surface. Place the crucible onto the Raman sample stage. Focus microscope and acquire Raman spectrum of the sample. Repeat sample preparation in crucible and acquisition procedure two additional times for a total of three measurements for each ground sample. Save each spectrum in GRAMS SPC file format.
A quantification method for Forms A, C and D in OSI-906 has been developed based on Raman spectroscopy and PLS (partial least squares) regression. The method assumes presence of only Forms A, C and D in the sample. For the purpose of quantitation, the Raman spectra are pretreated using mean centering normalization. The spectra within the range of 1478-1644 cm^−1 were used for PLS regression. TQ analyst software is used for establishing the calibration model (as shown in FIG. 61 and FIG. 62) and quantifying the samples. Weight percentage (wt %) of Forms C and D is determined using the calibration model.
Load the quantitation method using TQ Analyst software for quantifying the three spectra obtained for the sample. Print out the quantitation report for each spectrum. Calculate the average of Forms C and D concentration in wt % for the triplicate measurements.
The calculated amount of Forms A, C and D was weighed according to the desired wt % of Forms C and D and to a total amount of approximately 250 mg. The samples were mixed in a mortar with the help of a spatula and slightly ground for 5 minutes to obtain consistency and homogeneity.
The calibration and validation samples were analyzed according to the Test Method to obtain Raman spectra. Quantitative determination of Forms C and Form D was then performed using TQ Analyst software (version 7.1). For the purpose of quantitation, the Raman spectra are pretreated using a quadratic baseline correction based on the region between 1478 and 1654 cm^−1 to correct baseline shifts and intensity variation among samples. The Raman spectra within the range of 1478-1654 cm^−1 were used for PLS (partial least squares) regression with mean centering normalization.

[1] = validation mixture, actual Form C 2.62 wt %
[2] = validation mixture, actual Form C 5.04 wt %
[3] = validation mixture, actual Form C 9.90 wt %
[4] = validation mixture, actual Form C 15.03 wt %
[5] = validation mixture, actual Form D 2.59 wt %
[6] = validation mixture, actual Form D 5.20 wt %
[7] = validation mixture, actual Form D 10.25 wt %
[8] = validation mixture, actual Form D 15.16 wt %

## CC1(O)CC(c2nc(-c3ccc4ccc(-c5ccccc5)nc4c3)c3c(N)nccn23)C1 (stereo not drawn) [Form C, cis-3-[8-amino-1-(2-phenyl-quinolin-7-yl)-imidazo[1,5-a]pyrazin-3-yl]-1-methylcyclobutanol]
Actual Form C 2.62 wt %
  Accuracy = abs[(average Form C wt % determined) − (actual Form C wt %)]: 0.1 wt %
Actual Form C 5.04 wt %
  Accuracy = abs[(average Form C wt % determined) − (actual Form C wt %)]: 0.0 wt %
Actual Form C 9.90 wt %
  Accuracy = abs[(average Form C wt % determined) − (actual Form C wt %)]: 0.9 wt %
Actual Form C 15.03 wt %
  Accuracy = abs[(average Form C wt % determined) − (actual Form C wt %)]: 1.2 wt %
Actual Form C 20.11 wt %
  Accuracy = abs[(average Form C wt % determined) − (actual Form C wt %)]: 1.7 wt %
Validation mixture of Forms A, C, D, actual Form C 20.11 wt %
  Calculated Form C: 19.09 wt % and 18.54 wt % and 17.67 wt %
[1]
  Calculated Form C: 2.64 wt % and 2.75 wt % and 2.70 wt %
  Average Form C: 2.70 wt %
[2]
  Calculated Form C: 4.82 wt % and 5.29 wt % and 5.05 wt %
  Average Form C: 5.05 wt %
[3]
  Calculated Form C: 9.46 wt % and 8.79 wt % and 8.89 wt %
  Average Form C: 9.05 wt %
[4]
  Calculated Form C: 13.58 wt % and 13.83 wt % and 14.09 wt %
  Average Form C: 13.83 wt %
Validation mixture, actual Form C 20.11 wt %
  Average Form C: 18.43 wt %

## CC1(O)CC(c2nc(-c3ccc4ccc(-c5ccccc5)nc4c3)c3c(N)nccn23)C1 (stereo not drawn) [Form D, cis-3-[8-amino-1-(2-phenyl-quinolin-7-yl)-imidazo[1,5-a]pyrazin-3-yl]-1-methylcyclobutanol]
Actual Form D 2.59 wt %
  Accuracy = abs[(average Form D wt % determined) − (actual Form D wt %)]: 1.3 wt %
Actual Form D 5.20 wt %
  Accuracy = abs[(average Form D wt % determined) − (actual Form D wt %)]: 1.1 wt %
Actual Form D 10.25 wt %
  Accuracy = abs[(average Form D wt % determined) − (actual Form D wt %)]: 0.3 wt %
Actual Form D 15.16 wt %
  Accuracy = abs[(average Form D wt % determined) − (actual Form D wt %)]: 0.0 wt %
Actual Form D 20.11 wt %
  Accuracy = abs[(average Form D wt % determined) − (actual Form D wt %)]: 0.0 wt %
Validation mixture of Forms A, C, D, actual Form D 20.11 wt %
  Calculated Form D: 20.74 wt % and 20.10 wt % and 19.60 wt %
[5]
  Calculated Form D: 3.89 wt % and 3.93 wt % and 3.85 wt %
  Average Form D: 3.89 wt %
[6]
  Calculated Form D: 6.14 wt % and 6.49 wt % and 6.23 wt %
  Average Form D: 6.29 wt %
[7]
  Calculated Form D: 10.86 wt % and 10.44 wt % and 10.25 wt %
  Average Form D: 10.52 wt %
[8]
  Calculated Form D: 14.79 wt % and 15.43 wt % and 15.29 wt %
  Average Form D: 15.17 wt %
Validation mixture, actual Form D 20.11 wt %
  Average Form D: 20.15 wt %
